Data taken from paper PMC11148194.
Where a chain is given by its changes, count along the chain named. Numbers in names are those of the source. These are yes or no findings as the source states them, for the method shown. Binding seen in cells or lysates may run through a third protein. Some binding calls cover weakened binding; strength is not graded here. Where a sequence is shown, tags or fusion partners need not be part of it. Values belong to the binder of their own block, whether it stands above or below them.

What was measured:
[1] = target: T1, Sor1-Pk (S. pombe Sor1, Sororin-like 1, SPAC9E9.05) (S. pombe) (UniProt O14291); assay: co-IP; anti-V5 agarose beads hold Sor1-Pk; Pds5-Myc detected by Western blot with anti-Myc; extracts of cycling S. pombe cells; IPP150 buffer (50 mM Tris-Cl pH 8.0, 150 mM NaCl, 10% glycerol, 0.1% NP-40), 1 h at 4 °C
T1 sequence: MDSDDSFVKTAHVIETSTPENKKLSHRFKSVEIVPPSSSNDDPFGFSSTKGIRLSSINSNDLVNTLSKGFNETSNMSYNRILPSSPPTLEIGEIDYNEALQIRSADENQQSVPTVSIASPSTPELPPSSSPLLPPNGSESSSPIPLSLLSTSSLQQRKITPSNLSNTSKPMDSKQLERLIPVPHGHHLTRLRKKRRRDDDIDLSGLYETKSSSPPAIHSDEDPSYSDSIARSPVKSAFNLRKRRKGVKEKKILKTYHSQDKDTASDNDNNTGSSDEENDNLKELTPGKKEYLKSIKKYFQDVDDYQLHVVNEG

[2] = target: T2, Psm3-GFP (S. pombe Psm3, cohesin subunit SMC3) (S. pombe) (UniProt O42649); assay: co-IP; anti-GFP agarose beads hold Psm3-GFP; Sor1-Pk detected by Western blot with anti-V5; extracts of cycling S. pombe cells; IPP150 buffer (50 mM Tris-Cl pH 8.0, 150 mM NaCl, 10% glycerol, 0.1% NP-40), 1 h at 4 °C
T2 sequence: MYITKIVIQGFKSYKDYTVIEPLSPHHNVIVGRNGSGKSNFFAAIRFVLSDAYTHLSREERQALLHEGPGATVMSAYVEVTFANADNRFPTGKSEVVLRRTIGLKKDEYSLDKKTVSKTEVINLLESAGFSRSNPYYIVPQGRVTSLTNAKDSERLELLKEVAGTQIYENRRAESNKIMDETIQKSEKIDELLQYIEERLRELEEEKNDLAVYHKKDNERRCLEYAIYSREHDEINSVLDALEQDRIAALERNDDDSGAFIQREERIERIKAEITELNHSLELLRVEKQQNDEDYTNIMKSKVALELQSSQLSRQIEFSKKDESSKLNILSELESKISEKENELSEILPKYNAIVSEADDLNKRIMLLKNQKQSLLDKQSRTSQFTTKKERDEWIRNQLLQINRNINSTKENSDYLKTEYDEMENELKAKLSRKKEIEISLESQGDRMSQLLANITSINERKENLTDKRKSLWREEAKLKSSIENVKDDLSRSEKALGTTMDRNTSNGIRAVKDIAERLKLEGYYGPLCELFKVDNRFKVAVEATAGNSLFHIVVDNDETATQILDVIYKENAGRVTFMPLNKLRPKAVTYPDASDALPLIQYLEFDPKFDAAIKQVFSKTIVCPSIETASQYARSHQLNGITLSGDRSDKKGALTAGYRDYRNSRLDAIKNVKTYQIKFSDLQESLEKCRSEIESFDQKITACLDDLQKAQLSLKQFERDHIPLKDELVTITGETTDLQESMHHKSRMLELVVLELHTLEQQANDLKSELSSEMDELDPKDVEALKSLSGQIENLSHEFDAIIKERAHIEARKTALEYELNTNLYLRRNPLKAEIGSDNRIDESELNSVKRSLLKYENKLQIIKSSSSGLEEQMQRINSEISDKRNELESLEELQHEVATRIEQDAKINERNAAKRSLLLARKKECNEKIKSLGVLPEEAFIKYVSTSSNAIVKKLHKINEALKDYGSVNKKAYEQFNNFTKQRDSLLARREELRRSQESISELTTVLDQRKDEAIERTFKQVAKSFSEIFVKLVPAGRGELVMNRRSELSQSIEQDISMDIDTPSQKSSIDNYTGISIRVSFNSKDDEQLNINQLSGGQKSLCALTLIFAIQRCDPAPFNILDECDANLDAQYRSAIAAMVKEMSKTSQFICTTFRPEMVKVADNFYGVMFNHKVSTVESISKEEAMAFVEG

binding [1]: binds
B1: Pds5-Myc (S. pombe Pds5) (protein, UniProt Q9HFF5 1-1205)
chain: MIKLQFQRNIVPTHDNPLTTSEILKRLRDLLGELTSLSQDTIDRDSVLPVARSLVNNNLLHHKDKGIRSYTLCCIVELLRLCAPDAPFTLSQLEDIFQVILKILSGLMNQESTYYPQIYEILESLSNVKSAVLIVDLPNAEEFLVNIFRLFFDLARKGTTKNVEFYMLDIINQLINEINTIPAAALNILFAQLISGKGVRQTIGSSDSTNHGPAFQLARNIFHDSADRLQRYVCQYFSDIIFDSRDSLSDSMTTPEFIFSHNLVLQLWKYAPTTLLNIIPQFENELQAEQTSVRLVAIETVGLMLQDNAIWSDYPRVWSAFCGRLNDKSVACRIKCIEVASNALQNSLATSEIIENVVQMLQSKLADTDEKVRVATLKTIEQLTFETFKMQFSVQALKLMGDRLRDRKLNVRLQAIRTLSQIYNRAYQDLIDGVEYSIQMFSWIPSSLLEVFYVNDETTNAAVEICMAELVLQYLSSDTQTRLNRLFLSIKYFSEKAMRVFILLLQRQVKYSELLNYYIECCKNYNGGVMDNDEESITNKLKKVIDIISSKSSNPTLTEATFRKFAELNDRQSYKMLLQTFSIKSEYQVVLKSIKYLFKRVSETLSTASLECFRIFVYRSALFAFNKSNVHEIIQLLNEPVKYHNFLKPSEALLQHLPLIHPNIYGEVVIEVENIIVSSGIESDPKVIKALSQFSKRKKNFSIQTTTAEILRKLCLHGTQEQAKQAATIIAITETKEFKLDMITNIVENLEYNGGLPVRLMTLGQLFLYTLEEVEKVADQVTEFLVKKVIQRFPEKYDDTHNDEEWCTYEKLDNLTMCKVLAIRVLVNRLRAAAGGTEALNIGAPIIKLLKVLLMADGELSPFKNTPKISRAYLRLTASKYFLKLCSIPFYAEHIDFSSYVQISLLCQDENFDVRNLFLTKLQKQLQLKKLPISYYPLLFLTAVDPEEEIKTKASIWIRSQVAFFQKTHDFTMEYVATYLIHLLSHHPDISSIESENSLDFIAYIRFYVDTVVNSENVPIVFHLMQRIKQSYDVIEDGNNYIYVLSDMAQKILQVKSQNFGWSLTTYPKQIKLPYEILRPIPSIDEKKRIFNKIFITPKMESQIEHAIRTPVSSFAKQTTNKHANLKQKKTHSSKSDKKSSRRRKNEKRRKLNEQNPNIRNVPERSSSRFQGIRINYSEAPSSSEEISEEEEEISEEDFDEIEDL

binding [2]: binds
B2: Sor1-Pk (S. pombe Sor1, Sororin-like 1, SPAC9E9.05) (protein, UniProt O14291 1-313)
chain: T1 sequence

binding [2]: binds
B3: Sor1-D303A-Pk (protein, UniProt O14291 1-313)
chain: T1 sequence with D303A
